Taken from: PubChem BioAssay AID1259283 (Sanger Institute, 2017)
Aim: 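Kinases needed for HT115 growth and partners for drug synergy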 (primary screen). Cell system: HT115 colorectal cancer cells. Reagents: siRNA pool against human genes. Treatment: anchor drug given one day after siRNA: BYL719 at 1 µM, cetuximab at 5 µg/ml, trametinib at 10 nM, or DMSO vehicle alone. Read-out: 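Per-drug synergy scores plus replicate-mean viability relative to non-targeting pool #2 wells, also expressed as a robust z-score based on control wells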. Direction: robust z-score, knock-down alone: higher = more viable cells after knock-down; viability, DMSO vs non-targeting control: higher = more viable cells. Units: viability, DMSO vs non-targeting control in fraction of control. Rule for the call: 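Essential gene: robust z-score less than -3 with no drug added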. Calls: active = essential (z below -3, no drug); inactive = no change without drug.
Shown is one part, drawn at random, of 794 reagents tested. Of all reagents, 14 (1.8%) were called active. 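Calls reflect only viability loss without drug; drug synergy does not enter the call.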 Viability is capped at 1. Further read-outs or replicates are left out here. Not given: the amount of reagent, the time to read-out.

For RSKR, the values are robust z-score, knock-down alone 0.613; viability, DMSO vs non-targeting control 0.984; inactive.
Against IRAK4, the values are robust z-score, knock-down alone 0.789; viability, DMSO vs non-targeting control 1; inactive.
After knock-down of CDKN1A, the screen gave robust z-score, knock-down alone 0.789; viability, DMSO vs non-targeting control 1; inactive.
Knock-down of DSTYK resulted in: robust z-score, knock-down alone 0.789; viability, DMSO vs non-targeting control 1; inactive.
After knock-down of AMHR2 the results were robust z-score, knock-down alone 0.789; viability, DMSO vs non-targeting control 1; inactive.
Against NME2 the deposit lists robust z-score, knock-down alone -0.0238; viability, DMSO vs non-targeting control 0.925; inactive.
Against CDKN1B the deposit lists robust z-score, knock-down alone 0.789; viability, DMSO vs non-targeting control 1; inactive.
TBCK scored robust z-score, knock-down alone 0.789; viability, DMSO vs non-targeting control 1; inactive.
With knock-down of CAMKK1 the results were robust z-score, knock-down alone 0.397; viability, DMSO vs non-targeting control 0.964; inactive.
After knock-down of PCK2 the results were robust z-score, knock-down alone 0.789; viability, DMSO vs non-targeting control 1; inactive.
Silencing of CDK18 resulted in: robust z-score, knock-down alone -1.8; viability, DMSO vs non-targeting control 0.761; inactive.
After knock-down of CDKL3, the record shows robust z-score, knock-down alone -0.246; viability, DMSO vs non-targeting control 0.904; inactive.
For CAMK2G, the entry reads robust z-score, knock-down alone 0.789; viability, DMSO vs non-targeting control 1; inactive.
For GUK1, the entry reads robust z-score, knock-down alone 0.488; viability, DMSO vs non-targeting control 0.972; inactive.
Silencing of LTK gave: robust z-score, knock-down alone -0.0591; viability, DMSO vs non-targeting control 0.922; inactive.
For CDK12 the deposit lists robust z-score, knock-down alone 0.789; viability, DMSO vs non-targeting control 1; inactive.
Against DGKK, the entry reads robust z-score, knock-down alone 0.789; viability, DMSO vs non-targeting control 1; inactive.
After knock-down of AKT3, the screen gave robust z-score, knock-down alone -0.244; viability, DMSO vs non-targeting control 0.905; inactive.
Against DCLK3 the deposit lists robust z-score, knock-down alone 0.789; viability, DMSO vs non-targeting control 1; inactive.

3 of these entries in another layout.
{"gene":"CAMK2G","robust z-score, knock-down alone":0.789,"viability, DMSO vs non-targeting control":1,"outcome":"inactive"}
{"gene":"GUK1","robust z-score, knock-down alone":0.488,"viability, DMSO vs non-targeting control":0.972,"outcome":"inactive"}
{"gene":"LTK","robust z-score, knock-down alone":-0.0591,"viability, DMSO vs non-targeting control":0.922,"outcome":"inactive"}
